{"source": "patent US20230055235", "key": {"[1]": {"target": "T1, PD-L1 (programmed death-ligand 1) (Homo sapiens?) (UniProt Q9NZQ7)", "assay": "inhibition of the protein", "settings": "Bz-dU at every n, purified recombinant protein, protein details: BPS PD-1/PD-L1 inhibition ELISA kit, single-stranded DNA"}, "[2]": {"target": "T1, PD-L1 (programmed death-ligand 1)", "assay": "activity in cells", "settings": "protein on the cell surface, single-stranded DNA"}, "[3]": {"settings": "Bz-dU at every n, PD-1/PD-L1 blockade in luciferase reporter co-culture, dose not given here"}}, "note": "For part of these data: Negatives hold for the conditions tested. For part of these data: The comparison behind a weaker result is the experiment's own reference, which may not be listed here."}
{"sequence": "AGTTTTTGATTGTACCTTAGTG [PL022]", "values": [{"measurement": "IC50", "setting": "[1]; variant of PL001", "result": "> 120", "unit": "nM"}]}
{"sequence": "ATGAAAAGTTTTTGATTGTACCTTAGTGCACTCAACAGTGCAGCC [PL018]", "values": [{"measurement": "IC50", "setting": "[1]; variant of PL001", "result": "> 120", "unit": "nM"}]}
{"sequence": "ATGCCGCACGATCGCCCTATTTTGCGAGTTTAC [PL007]", "values": [{"measurement": "functional effect of the aptamer", "setting": "[2]; Bz-dU at every n, relatively weak inhibition in cells, variant of PL002, dose not given here", "result": "less active"}]}
{"sequence": "CCGCACGATCGCCCTATTTTGCGAGTT [PL008]", "values": [{"measurement": "IC50", "setting": "[1]; variant of PL002", "result": "> 120", "unit": "nM"}]}
{"sequence": "GAGTGACCGTCTGCCTGATGAAAAGTTTTTGATTGTACCTTAGTGCACTCAACAGTGCAGCCACACCACCAGCC [PL001]", "values": [{"measurement": "functional effect of the aptamer", "setting": "[2]; 5-(N-benzylcarboxamide)-2'-deoxyuridine (Bz-dU) at every n, PD-1/PD-L1 blockade in luciferase reporter co-culture, dose not given here", "result": "active"}]}
{"sequence": "GAGTGACCGTCTGCCTGCCATTTCCTGCTTGCTCTTCCTCCTTTATTTTTCACCTTTCAGCCACACCACCAGCC [PL029]", "values": [{"measurement": "functional effect of the aptamer", "setting": "[2]; Bz-dU at every n, no PD-1/PD-L1 inhibition in reporter co-culture, dose not given here", "result": "not active"}]}
{"sequence": "GAGTGACCGTCTGCCTGTGTATGCCGCACGATCGCCCTATTTTGCGAGTTTAACTGACAGCCACACCACCAGCC [PL028]", "values": [{"measurement": "functional effect of the aptamer", "setting": "[2]; [3]", "result": "active"}]}
{"sequence": "GAGTGACCGTCTGCCTGTGTATGCCGCACGATCGCCCTATTTTGCGAGTTTACTCACAGCCACACCACCAGCC [PL002]", "values": [{"measurement": "functional effect of the aptamer", "setting": "[2]; [3]", "result": "active"}]}
{"sequence": "GAGTGACCGTCTGCCTGTTAAGCGGCTAAGTTTTTGATTGTACCTTAGTGCCCTTACCAGCCACACCACCAGCC [PL010]", "values": [{"measurement": "functional effect of the aptamer", "setting": "[2]; [3]", "result": "active"}]}
{"sequence": "GCCTGTGTATGCCGCACGATCGCCCTATTTTGCGAGTTTACTCACAGCC [PL005]", "values": [{"measurement": "functional effect of the aptamer", "setting": "[2]; Bz-dU at every n, at 50 nM similar to anti-PD-L1 antibody, variant of PL002", "result": "active"}]}
{"sequence": "TGTATGCCGCACGATCGCCCTATTTTGCGAGTTTACTCA [PL006]", "values": [{"measurement": "functional effect of the aptamer", "setting": "[2]; Bz-dU at every n, inhibitory activity confirmed, variant of PL002, dose not given here", "result": "active"}]}
{"sequence": "TTGATTGTACCTTAGTGCACTCAA [PL020]", "values": [{"measurement": "IC50", "setting": "[1]; variant of PL001", "result": "> 120", "unit": "nM"}]}
